Assay [1] has as its target 6x His-tagged CsiV expressed from its native chromosomal location (Vibrio cholerae). The assay is described as follows: pull-down.
Assay [2] concerns the target truncated CsiV_(31-266)-His (Vibrio cholerae) (UniProt Q9KQW1). Put plainly: pull-down; both purified.

Results are given in words; binding and its absence hold for the method and conditions named. For some assays here: Binding seen in cells or lysates may run through a third protein. For some assays here: Binding calls can cover weak binding; strength is not graded here. For some assays here: Sequences can lack the tags named with a protein.

Experimental findings from publication PMC4063736 are described below.

B1: LpoA-mCherry expressed from the chromosome (protein, UniProt Q9KUE0 27-603)
chain: CSTQPSSPDVVDITAQPLLTAQTYLMRADASQGNQQNDWLIMALKAAIEENNPDQAQLLIMRLAKQPLTPTQQAQWQLLRAQLLANTEQYQEALEQLSFQANWSLPQVQWQQYHQLRADIFTALDRSFDSTRELVALYGLSSNKDKEALADQIWANLNHYSASKIIKLSTEPDEAQLDGWLQLAIYMKTLGSDLPQLKNTLEKWLAENPQHPAAIYTPKAITDILALEIVKPTNTALLLPLTGKFAKQAQFIRDGFVFAMMNDADRQTNATLTIIDTNAETLESVDAILTSKQIDFVVGPLIKGNIEKLQQFQQSRGQMIPTLALNIPDQIDTTAGACYLALSPEQEVAQAAKHLFTQGYRYPLILAPQNAYGERVVEAFNEEWRRYSKNKVAVNLFGDKRQLQRNINSIFGLQDSQQNIAQMESLLGMGLESQPRSRRDIDAVYIVANSSELTLIKPFIEVAINPDTRPPKLFSNSNSNTGGRQYEDLSGVTYSDIPLLIQPAPSIKEQLTQIWPESSNAERRLQALGMDAYRLMVELPQMKIVEGYTIDGQTGVLSIDEQCVVQREISWAEHGVR
As to B1, the binding result in assay [1] is “binds”.

B2: full-length His-PBP1A (enzyme, UniProt Q9KNU5 1-825)
chain: MKFIKRLLVFSLICIILGVTTIFGFYFYVKSDLPDVATLRDVQLQTPMQVFSQDGKLIAQFGEKRRIPLKLEEMPKELIEAVIATEDSRYYEHYGFDPIGITRAAFAVLASGSASQGASTITQQLARNFFLSNEKKVMRKVKEIFIAIHIEQLLSKQEILELYLNKIYLGYRSYGVGAAAQAYFGKEVKDLTLGEIALIAGLPKAPSTMNPIYSVERATNRRNVVLQRMLDEKYITKAEYDAARAEPVLPKYHGAEIELNAPYVAEIARAWMVERYGEEAAYTSGMNVYTTVDSKLQRAANQAAINNLLAYDERHGYRGAEKELWQVNQPAWSSTQLSEYLSNEPTYGDMFPAAVLSVEEKSAQVWVKSYGVQTIAWEDMNWARRFINDDRQGPLPKSANEFLAAGQQIWVRPRTQDGAITAWKLTQVPNANTAFVAMNPENGAVTALVGGFNFVHNKFNRATQSVRQVGSSIKPFIYSAALNKGLTLATLINDAPINQWDESQGTAWRPKNSPPTYTGPTRLRIGLAQSKNVMAVRVLREVGLDETREYLTRFGFKLDQLPRSETIALGAGSLTPVQMAQGFSVFANNGYFVEPFYISRVENPFGNIEFSAEPKVVCHRECSSELDEFAEQDAASPYAPKVISEQNAFLTREMLYSNIWGGGEWSSDTGWNGTGWRAQALKRRDIGGKTGTTNDSKDAWYNGYAPGIVGVAWVGFDDHSRNLGKTAPNRNIEDDVSGAESGGKTALPAWVEFMSLALQDVPVQQKAVPNNIARVRIDRDTGLLTNKLDSSSMFEYFEAGTEPTEYVSEHVNESIYSTSSGEELF
With B2, the binding result in assay [2] is listed as “no binding (tested: 2.5 µM)”.
